# Assay results published in PubChem BioAssay AID445 (National Center for Advancing Translational Sciences (NCATS), 2006).
# The other results are listed elsewhere or left out. Shown are side measurements of this screen, not its main read-out; they come without a call. The list favours compounds with an active or inconclusive main result. The note in brackets gives the kind of curve behind each potency; many fits are weak.
# Experiment: IkB Signaling
# Details: ABC-DLBCL IkBa-CBG/CBR dual luciferase ratio (green luciferase fused to IkBa over red control in OCI-Ly3 lymphoma cells), 4 h
# Summary of the method: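 Luminescence ratio of IκBα-fused green versus native red beetle luciferase in OCI-Ly3 cells, 4 h post-doxycycline with compound; red signal alone, scaled from basal (0%) to zero light (-100%), flagged nonspecific or cytotoxic effects.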
# [1] = measured here: control luc red channel unless noted
smiles,measurement,setting,value
Cc1ccc2c(CC(=O)OCc3nc(N)nc(Nc4ccccc4C)n3)coc2c1,AC50,[1],"39.8 µM [falling, single point]"
O=C(CCCn1c2ccccc2c(=O)c2ccccc21)Nc1ccc(F)cc1Cl,AC50,[1],"3.98 µM [falling, full curve]"
CC(C)[C@H](NC(=O)OC(C)(C)C)c1nnc(S(=O)(=O)Cc2c(F)cccc2Cl)o1,AC50,measured here: IkB-luc green channel,"6.31 µM [rising, single point]"
same,AC50,measured here: control luc red channel,"10 µM [falling, partial curve]"
Clc1ccc(OCc2nnc(SCc3nnc(-c4ccccc4)o3)o2)c(Cl)c1,AC50,[1],"39.8 µM [falling, single point]"
Cc1occc1C(=O)Nc1cccc2ccccc12,AC50,[1],"25.1 µM [falling, partial curve]"
CC(C)(C)c1ccc(Cn2nnc3c(=O)[nH]c(C4CCCN(C(=O)Cc5cccs5)C4)nc32)cc1 (configuration not stated),AC50,[1],"31.6 µM [falling, partial curve]"
Cc1ccc2c(COn3nnc4ccc(S(=O)(=O)N(C)C)cc43)cc(=O)oc2c1C,AC50,[1],"25.1 µM [falling, partial curve]"
c1ccc(-c2noc(-c3ccc4ccccc4c3)n2)nc1,AC50,[1],"2 µM [falling, full curve]"
COc1cc(C2c3c(-c4ccccc4O)n[nH]c3C(=O)N2CCO)ccc1OCC(C)C (configuration not stated),AC50,[1],"0.398 µM [falling, single point]"
COc1ccc(NC(=O)c2oc3ccc(S(=O)(=O)N4CCC5(CC4)OCCO5)cc3c2C)cc1Cl,AC50,[1],"12.6 µM [falling, partial curve]"
COc1ccc(NC(=O)C2CCC(CNS(=O)(=O)c3cccs3)CC2)cc1OC (configuration not stated),AC50,[1],"0.2 µM [rising, partial curve]"
CC1CCN(S(=O)(=O)c2cc(Br)cc(C(=O)NC3=NCCS3)c2)CC1,AC50,[1],"10 µM [falling, partial curve]"
COc1ccccc1CNC(=O)c1cc2ccc3ccc(C)[nH]c3c2n1,AC50,[1],"12.6 µM [falling, partial curve]"
Cc1ccccc1CSCCNC(=O)CN(c1ccccc1)S(=O)(=O)N(C)C,AC50,[1],"25.1 µM [falling, partial curve]"
Cc1cccc(CC(=O)Nc2cccc(-c3nc4cccnc4s3)c2)c1,AC50,[1],"15.8 µM [rising, partial curve, poor fit]"
Cc1ccc2occ(CC(=O)N3CCN(c4cccc(Cl)c4)CC3)c2c1,AC50,[1],"25.1 µM [falling, single point]"
CC(=O)Nc1cccc(NC(=O)C(=O)NCCc2csc3nc(-c4ccccc4F)nn23)c1,AC50,[1],"3.16 µM [falling, full curve]"
CCOC(=O)c1ccccc1NC(=O)c1nn(C)c2c1COc1ccccc1-2,AC50,[1],"15.8 µM [falling, partial curve]"
COc1ccccc1N1CCN(S(=O)(=O)c2ccc(-c3cnc(C4CC4)o3)cc2)CC1,AC50,[1],"39.8 µM [falling, single point]"
Cc1cccc(C(=O)Nc2cccc(OCc3cc(=O)n4ccccc4n3)c2)c1,AC50,[1],"2.51 µM [falling, full curve]"
Cc1cc(C)c(NC(=O)Cn2c(=O)n(Cc3ccccc3)c(=O)c3c(C)c(C(=O)N(C)C)sc32)c(C)c1,AC50,[1],"12.6 µM [rising, partial curve]"
COc1cc(OC)c(NC(=O)c2c3c(nc4ccccc24)C(=O)N(C2CCCCC2)C3)cc1Cl,AC50,[1],"2.51 µM [falling, full curve]"
CCC1CCCCN1Cc1cn2c(-c3ccc(Br)cc3)nnc2s1 (configuration not stated),AC50,[1],"1.26 µM [rising, full curve]"
CCSc1nnc(NC(=O)CSc2nccn2-c2cc(C)cc(C)c2)s1,AC50,[1],"12.6 µM [falling, partial curve]"
CCCCOC(=O)Sc1nc2ccccc2o1,AC50,[1],"20 µM [falling, single point]"
CCCN(CCC)C(=O)CSc1nnc2cc(C)c3ccccc3n12,AC50,[1],"2.51 µM [falling, partial curve]"
Cc1cc(C)c(Cn2c3ccccc3c3cnn(CC(=O)NCC(C)c4ccccc4)c(=O)c32)c(C)c1 (configuration not stated),AC50,[1],"1.58 µM [falling, full curve, poor fit]"
O=C(/C=C/c1ccc(Cl)cc1)Nc1nc(-c2cccs2)ns1,AC50,[1],"0.0794 µM [rising, full curve, poor fit]"
COc1cc(OC)c(NC(=O)CCNS(=O)(=O)c2ccc3c(c2)oc(=O)n3C)cc1Cl,AC50,[1],"12.6 µM [falling, partial curve]"
COc1ccc(-n2c(CCC(=O)O)ccc2-c2ccccc2)c(OC)c1,AC50,[1],"0.316 µM [falling, full curve, poor fit]"
CC(=O)Nc1ccc(S(=O)(=O)N(Cc2ccccc2)Cc2ccccc2)cc1,AC50,[1],"31.6 µM [falling, single point]"
COc1cccc(-c2ccc3c(N)c(C(=O)Nc4ccccc4C)sc3n2)c1,AC50,[1],"39.8 µM [falling, single point]"
Cc1ccc(-c2cc3nc(C)cc(NCc4ccco4)n3n2)cc1,AC50,[1],"25.1 µM [falling, single point]"
CC(C)CCNC(=O)c1ccc2c(c1)nc1n2CCCCC1,AC50,[1],"39.8 µM [falling, single point]"
Cc1sc2nc(-c3cccs3)nc(N3CCCN(C)CC3)c2c1C,AC50,[1],"25.1 µM [falling, single point]"
Nc1ccc2oc(Cc3ccc(Cl)cc3)nc2c1,AC50,[1],"1 µM [falling, partial curve]"
Cc1cc(-c2ccc(S(=O)(=O)Nc3cccc(Cl)c3C)cc2)on1,AC50,[1],"1.58 µM [falling, full curve]"
COc1ccc(N(C)C(=O)c2cc3c(s2)-c2ccccc2OC3)cc1,AC50,[1],"39.8 µM [falling, single point]"
Cc1ccc(Cl)cc1N1CCN(C(=O)C2CCCN(Cc3nc(-c4cccc(Cl)c4)oc3C)C2)CC1 (configuration not stated),AC50,[1],"15.8 µM [falling, partial curve]"
CCCCNc1nc2c(c(=O)n(Cc3ccccc3)c(=O)n2C)n1C,AC50,[1],"31.6 µM [falling, partial curve]"
Cc1ccc(NC(=O)C2CCCN(S(=O)(=O)c3ccc4c(c3)CCCC(=O)N4)C2)cc1Cl (configuration not stated),AC50,[1],"25.1 µM [falling, partial curve]"

# Rewritten with bars between the fields: part of the list above.
smiles | measurement | setting | value
CC(C)[C@H](NC(=O)OC(C)(C)C)c1nnc(S(=O)(=O)Cc2c(F)cccc2Cl)o1 | AC50 | measured here: control luc red channel | 10 µM [falling, partial curve]
Clc1ccc(OCc2nnc(SCc3nnc(-c4ccccc4)o3)o2)c(Cl)c1 | AC50 | [1] | 39.8 µM [falling, single point]
Cc1occc1C(=O)Nc1cccc2ccccc12 | AC50 | [1] | 25.1 µM [falling, partial curve]
